Reference: the supplement of paper PMC4604168 (melanoma cell lines)
The other results are listed elsewhere or left out. Single values are uncertain, as repeats are few or missing.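 Imaging used 1,536-well plates; nuclei positive for cleaved PARP by antibody were divided by total DNA-stained nuclei to yield the apoptosis fraction. Doses for screening kept most cells viable, and cell lines differ markedly in resting and induced cleaved-PARP levels.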

Experiments:
Assay in all cases: cleaved PARP positive nuclei fraction relative to DMSO control; melanoma cells; higher = more apoptosis
Conditions in all cases: library dose: low library concentration; 72 h
WM115 = test system: WM115
WM1716 = test system: WM1716
WM1745 = test system: WM1745
WM3526 = test system: WM3526
WM3619 = test system: WM3619
WM451Lu = test system: WM451Lu

Structure (SMILES) | cleaved PARP positive nuclei fraction (WM115) [%] | cleaved PARP positive nuclei fraction (WM1716) [%] | cleaved PARP positive nuclei fraction (WM1745) [%] | cleaved PARP positive nuclei fraction (WM3526) [%] | cleaved PARP positive nuclei fraction (WM3619) [%] | cleaved PARP positive nuclei fraction (WM451Lu) [%]
COc1cc(Nc2ncc(F)c(Nc3ccc4c(n3)NC(=O)C(C)(C)O4)n2)cc(OC)c1OC [Tamatinib] + CN(C)S(=O)(=O)c1ccc2c(c1)/C(=C/c1cc3c([nH]1)CCCC3)C(=O)N2 [SU6656] (first compound 0.4 µM, partner dose 0.4 µM) | 414 | 172 | 247 | 68.7 | 83.6 | 25.6
C#Cc1cccc(Nc2ncnc3cc(OCCOC)c(OCCOC)cc23)c1 [erlotinib] + COc1cc(Nc2ncc(F)c(Nc3ccc4c(n3)NC(=O)C(C)(C)O4)n2)cc(OC)c1OC [Tamatinib] (first compound 0.8 µM, partner dose 0.4 µM) | 165 | 222 | 142 | 64.7 | 103 | 58.4
OCc1c[nH]c2ccccc12 [Indole-3-carbinol] + Nc1cccc2c1CN(C1CCC(=O)NC1=O)C2=O [lenalidomide] (first compound 0.8 µM, partner dose 1 µM) | 83.9 | 39.2 | 223 | 80 | 201 | 114
O=C(Nc1cccc(Cl)c1)Nc1ncc(CCNc2ncnc3ccsc23)s1 + Oc1nc(-c2ccc(C(F)(F)F)cc2)nc2c1CSCC2 [XAV939] (first compound 0.0008 µM, partner dose 2 µM) | 126 | 462 | 131 | 130 | 79.7 | 240
C=CCNC1=C2C[C@@H](C)C[C@H](OC)[C@H](O)[C@@H](C)/C=C(\C)[C@H](OC(N)=O)[C@@H](OC)/C=C\C=C(/C)C(=O)NC(=CC1=O)C2=O [Tanespimycin] + Cc1nc(Nc2ncc(C(=O)Nc3c(C)cccc3Cl)s2)cc(N2CCN(CCO)CC2)n1 [dasatanib] (first compound 0.002 µM, partner dose 0.004 µM) | 75.6 | 140 | 190 | 97.7 | 139 | 67.7
C[C@]1(c2nc3c(C(N)=O)cccc3[nH]2)CCCN1 [Veliparib] + CCN(CC)CCCCNc1ncc2cc(-c3cc(OC)cc(OC)c3)c(NC(=O)NC(C)(C)C)nc2n1 [PD173074] (first compound 1.4 µM, partner dose 0.1 µM) | 227 | 110 | 114 | 113 | 87 | 20.5
CC(C)(C)c1cnc(CSc2cnc(NC(=O)C3CCNCC3)s2)o1 + COc1ccc(COc2ccc(Cc3cnc(N)nc3N)cc2OC)cc1 [GW2580] (first compound 0.01 µM, partner dose 1 µM) | 80.5 | 91.1 | 117 | 55.3 | 86 | 122
CC(=O)c1c(C)c2cnc(Nc3ccc(N4CCNCC4)cn3)nc2n(C2CCCC2)c1=O [palbociclib] + CC1(C)NC(=O)N(c2ccc([N+](=O)[O-])c(C(F)(F)F)c2)C1=O [nilutamide] (first compound 0.04 µM, partner dose 1 µM) | 191 | 65.2 | 168 | 373 | 189 | 223
CC(=O)c1c(C)c2cnc(Nc3ccc(N4CCNCC4)cn3)nc2n(C2CCCC2)c1=O [palbociclib] + Cc1nc(Nc2ncc(C(=O)Nc3c(C)cccc3Cl)s2)cc(N2CCN(CCO)CC2)n1 [dasatanib] (first compound 0.04 µM, partner dose 0.004 µM) | 101 | 156 | 132 | 72.3 | 157 | 106
OCCn1cc(-c2cnc3nnn(Cc4ccc5ncccc5c4)c3n2)cn1 + O=C(O)C(=O)Nc1sc2c(c1C(=O)O)CCNC2 [TCS401] (first compound 1 µM, partner dose 1.66667 µM) | 190 | 106 | 108 | 136 | 90.4 | 166
OCc1c[nH]c2ccccc12 [Indole-3-carbinol] + NCC(=O)Nc1ccc(-n2nc(C(F)(F)F)cc2-c2ccc3c(ccc4ccccc43)c2)cc1 [OSU03012] (first compound 0.8 µM, partner dose 1 µM) | 91.2 | 88 | 82.1 | 86.4 | 94.9 | 44.7
COCC[n+]1c2c(n(Cc3cnccn3)c1C)C(=O)c1ccccc1C2=O + COc1cc2ncnc(Nc3ccc(Oc4ccccc4)cc3)c2cc1OC [SrcI1] (first compound 0.0004 µM, partner dose 2 µM) | 67.9 | 53.1 | 113 | 58 | 79.4 | 176
OCCn1cc(-c2cnc3nnn(Cc4ccc5ncccc5c4)c3n2)cn1 + O=c1cc(-c2cccc3c2Sc2ccccc2S3)oc(N2CCOCC2)c1 [KU55933] (first compound 1 µM, partner dose 1 µM) | 66.2 | 115 | 106 | 153 | 186 | 81.5
C[C@@H]1CCN(C(=O)CC#N)C[C@@H]1N(C)c1ncnc2[nH]ccc12 + COc1ccc(COc2ccc(Cc3cnc(N)nc3N)cc2OC)cc1 [GW2580] (first compound 1 µM, partner dose 1 µM) | 74.9 | 92.2 | 110 | 113 | 84.1 | 31.9
C=CCn1c(=O)c2cnc(Nc3ccc(N4CCN(C)CC4)cc3)nc2n1-c1cccc(C(C)(C)O)n1 + COc1ccc2c(c1)CCC1C2CCC2(C)C(NCCCCCCN3C(=O)C=CC3=O)CCC12 [U73122] (first compound 0.02 µM, partner dose 0.4 µM) | 85.8 | 54.7 | 233 | 63.4 | 127 | 80.3
C=CCNC1=C2C[C@@H](C)C[C@H](OC)[C@H](O)[C@@H](C)/C=C(\C)[C@H](OC(N)=O)[C@@H](OC)/C=C\C=C(/C)C(=O)NC(=CC1=O)C2=O [Tanespimycin] + COc1ccc(COc2ccc(Cc3cnc(N)nc3N)cc2OC)cc1 [GW2580] (first compound 0.002 µM, partner dose 1 µM) | 106 | 600 | 84.1 | 126 | 88.8 | 135
C=CCNC1=C2C[C@@H](C)C[C@H](OC)[C@H](O)[C@@H](C)/C=C(\C)[C@H](OC(N)=O)[C@@H](OC)/C=C\C=C(/C)C(=O)NC(=CC1=O)C2=O [Tanespimycin] + O=C(Nc1cccc(Cl)c1)Nc1ncc(CCNc2ncnc3ccsc23)s1 [SNS314] (first compound 0.002 µM, partner dose 0.0008 µM) | 305 | 54 | 97.9 | 61.8 | 103 | 124
OCc1c[nH]c2ccccc12 [Indole-3-carbinol] + OCCn1cc(-c2cnc3nnn(Cc4ccc5ncccc5c4)c3n2)cn1 [PF04217903] (first compound 0.8 µM, partner dose 1 µM) | 160 | 162 | 101 | 25.8 | 146 | 16
CO[C@@H]1[C@H](N(C)C(=O)c2ccccc2)C[C@H]2O[C@]1(C)n1c3ccccc3c3c4c(c5c6ccccc6n2c5c31)C(=O)NC4 [Midostaurin] + O=S(=O)(c1ccccc1)N(CC(F)(F)F)c1ccc(C(O)(C(F)(F)F)C(F)(F)F)cc1 [T0901317] (first compound 0.08 µM, partner dose 1.4 µM) | 103 | 111 | 130 | 80.2 | 107 | 61.6
Cn1c(Nc2ccc(C(F)(F)F)cc2)nc2cc(Oc3ccnc(-c4ncc(C(F)(F)F)[nH]4)c3)ccc21 + Cn1nnc2c(C(N)=O)ncn2c1=O [temozolomide] (first compound 0.08 µM, partner dose 2 µM) | 1040 | 49.1 | 133 | 60.9 | 150 | 60.1
COc1cc(Nc2ncc(F)c(Nc3ccc4c(n3)NC(=O)C(C)(C)O4)n2)cc(OC)c1OC [Tamatinib] + Cn1cncc1[C@@](N)(c1ccc(Cl)cc1)c1ccc2c(c1)c(-c1cccc(Cl)c1)cc(=O)n2C [tipifarnib] (first compound 0.4 µM, partner dose 0.01 µM) | 649 | 169 | 134 | 40.8 | 178 | 22.2
O=C(Nc1cccc(Cl)c1)Nc1ncc(CCNc2ncnc3ccsc23)s1 + Cc1cc([N+](=O)[O-])ccc1NS(=O)(=O)c1cc(Cl)ccc1Cl [FH535] (first compound 0.0008 µM, partner dose 1 µM) | 108 | 103 | 106 | 69.7 | 93.7 | 63.6
O=C(Nc1cccc(Cl)c1)Nc1ncc(CCNc2ncnc3ccsc23)s1 + COc1ccc2c(c1)CCC1C2CCC2(C)C(NCCCCCCN3C(=O)C=CC3=O)CCC12 [U73122] (first compound 0.0008 µM, partner dose 0.4 µM) | 114 | 77.7 | 112 | 251 | 89.2 | 83.5
Cc1cc(N2CCOCC2)cc2[nH]c(-c3c(NC[C@@H](O)c4cccc(Cl)c4)cc[nH]c3=O)nc12 + Cn1cncc1[C@@](N)(c1ccc(Cl)cc1)c1ccc2c(c1)c(-c1cccc(Cl)c1)cc(=O)n2C [tipifarnib] (first compound 0.2 µM, partner dose 0.01 µM) | 223 | 78.6 | 113 | 48.2 | 97.3 | 124
O=C(Nc1cccc(Cl)c1)Nc1ncc(CCNc2ncnc3ccsc23)s1 + CCCCCCCCCCCC1=C(O)C(=O)C=C(O)C1=O [Embelin] (first compound 0.0008 µM, partner dose 1.2 µM) | 66 | 23.4 | 117 | 66.3 | 72.6 | 49

Part of the list above, showing only cleaved PARP positive nuclei fraction (WM1745) [%] and cleaved PARP positive nuclei fraction (WM1716) [%]:
Structure (SMILES),cleaved PARP positive nuclei fraction (WM1745) [%],cleaved PARP positive nuclei fraction (WM1716) [%]
"COCC[n+]1c2c(n(Cc3cnccn3)c1C)C(=O)c1ccccc1C2=O + COc1cc2ncnc(Nc3ccc(Oc4ccccc4)cc3)c2cc1OC [SrcI1] (first compound 0.0004 µM, partner dose 2 µM)",113,53.1
"OCc1c[nH]c2ccccc12 [Indole-3-carbinol] + OCCn1cc(-c2cnc3nnn(Cc4ccc5ncccc5c4)c3n2)cn1 [PF04217903] (first compound 0.8 µM, partner dose 1 µM)",101,162
